Paper doi:10.1101/760389 (bioRxiv, 2019)

Experiments:
[1] = molecular target: mCherry-CMU1 (Arabidopsis thaliana); assay: co-IP
[2] = molecular target: mCherry-CMU2 (Arabidopsis thaliana); assay: co-IP
[3] = molecular target: MBP-CMU1 (Arabidopsis thaliana); assay: pull-down
[4] = molecular target: MBP-CMU2 (Arabidopsis thaliana); assay: pull-down
[5] = molecular target: MBP-CMU3 (Arabidopsis thaliana); assay: pull-down
[6] = molecular target: Full-length CMU1 fused with the DNA binding domain (BD) (Arabidopsis thaliana); assay: two-hybrid
[7] = molecular target: Full-length CMU2 fused with the DNA binding domain (BD) (Arabidopsis thaliana); assay: two-hybrid

Row | Binder | binding [3] | binding [4] | other results
1 | FRA1 kinesin, endogenous full-length protein (protein, UniProt Q8GS71 1-1035) MESTPPPDDCSVKVAVHIRPLIGDERIQGCQDCVTVVTGKPQVQIGSHSFTFDHVYGSSGSPSTEMYEECAAPLVDGLFQGYNATVLAYGQTGSGKTYTMGTGCGDSSQTGIIPQVMNALFTKIETLKQQIEFQIHVSFIEIHKEEVQDLLDPCTVNKSDTNNTGHVGKVAHVPGKPPIQIRETSNGVITLAGSTEVSVSTLKEMAACLDQGSVSRATGSTNMNNQSSRSHAIFTITVEQMRKINTDSPENGAYNGSLKEEYLCAKLHLVDLAGSERAKRTGSDGLRFKEGVHINKGLLALGNVISALGDEKKRKDGAHVPYRDSKLTRLLQDSLGGNSRTVMIACISPADINAEETLNTLKYANRARNIRNKPVVNRDPVSSEMLKMRQQVEYLQAELSLRTGGSSCAEVQALKERIVWLETANEELCRELHEYRSRCPGVEHSEKDFKDIRADDIVGSVRPDGLKRSLHSIESSNYPMVEATTGDSREIDEEAKEWEHKLLQNSMDKELYELNRRLEEKESEMKLFDGYDPAALKQHFGKKIAEVEDEKRSVQEERNRLLAEIENLASDGQAQKLQDVHAQNLKALEAQILDLKKKQESQVQLLKQKQKSDDAARRLQDEIQSIKAQKVQLQHRMKQEAEQFRQWKASREKELLQLRKEGRKSEYERHKLQALNQRQKMVLQRKTEEAAMATKRLKELLEARKSSPREHSAGTNGFGTNGQTNEKSLQRWLDHELEVMVNVHEVRHEYEKQSHVRAALAEELAVLRQVDEFAVKGLSPPRGKNGFARASSLSPNARMARISSLENMLVISSNSLVAMASQLSEAEERERAFTNRGRWNQLRSMGEAKNLLQYMFNSLAETRCQLWEKDVEIKEMKDQFKEIVGLLRQSELRRKEAEKELKLREQAIATSLGTPPSSVKHVAEDLSTPSPMTVPAQKQLKFTPGIANGKVRGPAAFLDTNKKMVPMGQVSMRKLSAVGKQGGRLWRWKRSHHQWIVQFKWKWQKPWRLSEWIRTSDETLLKSKPRLKALPNKIM | – | – | binding [1]: binds; binding [2]: binds
2 | FRA1-AA, phosphodefective FRA1 C-terminal region (T687A-T694A) (domain or fragment, UniProt Q8GS71 616-1035) ARRLQDEIQSIKAQKVQLQHRMKQEAEQFRQWKASREKELLQLRKEGRKSEYERHKLQALNQRQKMVLQRKAEEAAMAAKRLKELLEARKSSPREHSAGTNGFGTNGQTNEKSLQRWLDHELEVMVNVHEVRHEYEKQSHVRAALAEELAVLRQVDEFAVKGLSPPRGKNGFARASSLSPNARMARISSLENMLVISSNSLVAMASQLSEAEERERAFTNRGRWNQLRSMGEAKNLLQYMFNSLAETRCQLWEKDVEIKEMKDQFKEIVGLLRQSELRRKEAEKELKLREQAIATSLGTPPSSVKHVAEDLSTPSPMTVPAQKQLKFTPGIANGKVRGPAAFLDTNKKMVPMGQVSMRKLSAVGKQGGRLWRWKRSHHQWIVQFKWKWQKPWRLSEWIRTSDETLLKSKPRLKALPNKIM | binds | binds | –
3 | FRA1-CT (amino acids 616-1035) fused with the activation domain (AD) (domain or fragment, UniProt Q8GS71 616-1035) ARRLQDEIQSIKAQKVQLQHRMKQEAEQFRQWKASREKELLQLRKEGRKSEYERHKLQALNQRQKMVLQRKTEEAAMATKRLKELLEARKSSPREHSAGTNGFGTNGQTNEKSLQRWLDHELEVMVNVHEVRHEYEKQSHVRAALAEELAVLRQVDEFAVKGLSPPRGKNGFARASSLSPNARMARISSLENMLVISSNSLVAMASQLSEAEERERAFTNRGRWNQLRSMGEAKNLLQYMFNSLAETRCQLWEKDVEIKEMKDQFKEIVGLLRQSELRRKEAEKELKLREQAIATSLGTPPSSVKHVAEDLSTPSPMTVPAQKQLKFTPGIANGKVRGPAAFLDTNKKMVPMGQVSMRKLSAVGKQGGRLWRWKRSHHQWIVQFKWKWQKPWRLSEWIRTSDETLLKSKPRLKALPNKIM | – | – | binding [6]: binds; binding [7]: binds

Now from value to binder, other results behind:

Row | binding [3] | binding [4] | Binder | other results
4 | binds | binds | FRA1 C-terminal tail fragment (amino acids 616-1035), C-terminal 6xHis fusion (domain or fragment, Arabidopsis thaliana, UniProt Q8GS71 616-1035, looked up) ARRLQDEIQSIKAQKVQLQHRMKQEAEQFRQWKASREKELLQLRKEGRKSEYERHKLQALNQRQKMVLQRKTEEAAMATKRLKELLEARKSSPREHSAGTNGFGTNGQTNEKSLQRWLDHELEVMVNVHEVRHEYEKQSHVRAALAEELAVLRQVDEFAVKGLSPPRGKNGFARASSLSPNARMARISSLENMLVISSNSLVAMASQLSEAEERERAFTNRGRWNQLRSMGEAKNLLQYMFNSLAETRCQLWEKDVEIKEMKDQFKEIVGLLRQSELRRKEAEKELKLREQAIATSLGTPPSSVKHVAEDLSTPSPMTVPAQKQLKFTPGIANGKVRGPAAFLDTNKKMVPMGQVSMRKLSAVGKQGGRLWRWKRSHHQWIVQFKWKWQKPWRLSEWIRTSDETLLKSKPRLKALPNKIM | binding [5]: binds
5 | binds | binds | FRA1-DD, phosphomimetic FRA1 C-terminal region (T687D-T694D) (domain or fragment, UniProt Q8GS71 616-1035) ARRLQDEIQSIKAQKVQLQHRMKQEAEQFRQWKASREKELLQLRKEGRKSEYERHKLQALNQRQKMVLQRKDEEAAMADKRLKELLEARKSSPREHSAGTNGFGTNGQTNEKSLQRWLDHELEVMVNVHEVRHEYEKQSHVRAALAEELAVLRQVDEFAVKGLSPPRGKNGFARASSLSPNARMARISSLENMLVISSNSLVAMASQLSEAEERERAFTNRGRWNQLRSMGEAKNLLQYMFNSLAETRCQLWEKDVEIKEMKDQFKEIVGLLRQSELRRKEAEKELKLREQAIATSLGTPPSSVKHVAEDLSTPSPMTVPAQKQLKFTPGIANGKVRGPAAFLDTNKKMVPMGQVSMRKLSAVGKQGGRLWRWKRSHHQWIVQFKWKWQKPWRLSEWIRTSDETLLKSKPRLKALPNKIM | –

These are yes or no findings as the source states them, for the method shown. A result given as binding can be weak or reduced; the word gives no strength. For some assays here: Tags and fused reporters may be left off the sequences shown. For some assays here: In cells and extracts the contact can be indirect.
